# Assay results as given in patent US10041105B2, “Methods and devices for detection of resistance to an enzyme inhibitor” (priority 2014, dated 2018).
# pIC50: −log10 of the molar value. Values joined by “and” are separate entries in the source; they are usually repeats but may differ in a detail not shown here. Identical values can stand only once. For at least one compound, name, drawing or mass did not settle the structure.
# Columns and labels:
# [1] = system: influenza viral neuraminidase, A/Georgia/20/2006 (H274Y); format: biochemical, influenza virus
# [2] = system: 08/09 A/H1N1 influenza virus isolates; format: biochemical; settings: share of isolates; IC50 cutoff 50 nM
# [3] = system: 07/08 A/H1N1 influenza virus isolates; format: biochemical; settings: share of isolates; IC50 cutoff 50 nM
# [4] = system: 08/09 A/H3N2 influenza virus isolates; format: biochemical; settings: share of isolates; IC50 cutoff 50 nM
# [5] = system: Type B influenza virus isolates; format: biochemical; settings: share of isolates; IC50 cutoff 50 nM
# [6] = target: H1N1 mutant carrying an H274Y mutation in the neuraminidase gene; settings: normally; background statement; cited from earlier work
smiles,measurement,setting,value
CCC(CC)O[C@@H]1C=C(C(=O)O)C[C@H](N)[C@H]1NC(C)=O [oseltamivir carboxylate],R-Factor Mean,[1],7.14 and 5.26
same,R-Factor Rep 1,[1],7.14 and 4.76
same,R-Factor Rep 2,[1],7.69 and 5.56
same,R-Factor Rep 3,[1],7.14 and 5.26
same,% Resistant,[2],100%
same,% Resistant,[3],0%
same,% Resistant,[4],0%
same,% Resistant,[5],0%
same,pIC50,[6],< 7.30
